Test results reported in the supplement of paper PMC12819154, “High-throughput peptide-centric local stability assay extends protein–ligand identification to membrane proteins, tissues and bacteria” (Nature Structural & Molecular Biology, 2025).
The list shows a part of the results. Most values lie at the level of the controls, where differences are scatter.

Sequences of proteins named here, by UniProt entry; tags and fusion partners are left off. A change or cut given only in a name is not applied to a line headed by its entry.
UniProt Q8WUU5: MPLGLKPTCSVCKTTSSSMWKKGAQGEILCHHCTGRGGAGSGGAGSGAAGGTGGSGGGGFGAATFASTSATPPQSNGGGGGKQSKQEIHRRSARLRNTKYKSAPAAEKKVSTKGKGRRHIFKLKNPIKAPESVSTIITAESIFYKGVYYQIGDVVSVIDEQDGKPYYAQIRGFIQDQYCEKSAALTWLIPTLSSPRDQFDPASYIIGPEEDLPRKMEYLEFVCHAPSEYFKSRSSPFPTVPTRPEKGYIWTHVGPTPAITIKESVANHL
UniProt Q92830, whole entry, looked up: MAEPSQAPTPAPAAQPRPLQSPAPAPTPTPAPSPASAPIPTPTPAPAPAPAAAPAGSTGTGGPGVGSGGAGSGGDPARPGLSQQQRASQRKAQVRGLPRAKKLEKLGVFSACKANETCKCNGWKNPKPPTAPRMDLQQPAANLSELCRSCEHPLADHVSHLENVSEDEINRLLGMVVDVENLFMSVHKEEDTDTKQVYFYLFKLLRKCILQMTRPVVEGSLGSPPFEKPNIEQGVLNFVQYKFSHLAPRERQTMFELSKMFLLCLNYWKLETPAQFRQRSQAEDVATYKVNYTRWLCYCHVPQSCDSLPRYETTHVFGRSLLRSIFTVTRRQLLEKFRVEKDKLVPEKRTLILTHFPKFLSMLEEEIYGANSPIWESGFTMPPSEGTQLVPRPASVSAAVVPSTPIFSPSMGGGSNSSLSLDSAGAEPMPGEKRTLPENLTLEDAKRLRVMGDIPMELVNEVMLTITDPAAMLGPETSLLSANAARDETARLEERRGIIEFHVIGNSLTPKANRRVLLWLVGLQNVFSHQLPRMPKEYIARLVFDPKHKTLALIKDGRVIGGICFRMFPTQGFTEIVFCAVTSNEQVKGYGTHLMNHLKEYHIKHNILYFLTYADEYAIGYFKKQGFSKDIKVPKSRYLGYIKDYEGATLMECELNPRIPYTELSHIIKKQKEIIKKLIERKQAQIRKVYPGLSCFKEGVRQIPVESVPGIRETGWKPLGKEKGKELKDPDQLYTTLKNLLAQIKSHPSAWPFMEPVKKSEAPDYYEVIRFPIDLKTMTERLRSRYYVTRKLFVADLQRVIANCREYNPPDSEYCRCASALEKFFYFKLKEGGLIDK
UniProt Q8WY36: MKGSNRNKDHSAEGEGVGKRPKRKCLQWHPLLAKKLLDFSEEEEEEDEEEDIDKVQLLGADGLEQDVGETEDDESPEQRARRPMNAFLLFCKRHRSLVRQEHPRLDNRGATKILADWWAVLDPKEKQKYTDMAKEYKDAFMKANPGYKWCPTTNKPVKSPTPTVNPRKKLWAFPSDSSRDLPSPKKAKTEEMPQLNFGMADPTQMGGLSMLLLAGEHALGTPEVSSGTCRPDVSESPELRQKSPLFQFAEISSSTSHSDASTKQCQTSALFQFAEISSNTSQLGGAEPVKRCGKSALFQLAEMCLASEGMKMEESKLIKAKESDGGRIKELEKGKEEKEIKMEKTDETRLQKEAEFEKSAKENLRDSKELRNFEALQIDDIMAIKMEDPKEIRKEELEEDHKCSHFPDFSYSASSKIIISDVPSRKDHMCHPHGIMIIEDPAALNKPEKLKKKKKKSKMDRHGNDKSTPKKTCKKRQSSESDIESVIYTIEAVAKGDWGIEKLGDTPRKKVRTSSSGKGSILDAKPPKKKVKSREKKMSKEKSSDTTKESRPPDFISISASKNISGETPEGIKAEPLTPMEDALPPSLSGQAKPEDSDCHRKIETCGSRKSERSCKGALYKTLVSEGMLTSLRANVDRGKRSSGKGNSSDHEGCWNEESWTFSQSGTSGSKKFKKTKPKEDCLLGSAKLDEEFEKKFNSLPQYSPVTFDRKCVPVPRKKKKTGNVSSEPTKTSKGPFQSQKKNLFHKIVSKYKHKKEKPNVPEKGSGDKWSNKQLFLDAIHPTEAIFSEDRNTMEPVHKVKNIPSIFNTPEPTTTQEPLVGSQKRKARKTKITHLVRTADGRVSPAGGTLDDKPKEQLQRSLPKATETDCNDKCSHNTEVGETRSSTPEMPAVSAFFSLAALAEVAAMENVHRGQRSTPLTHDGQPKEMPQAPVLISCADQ
UniProt Q8WWL2: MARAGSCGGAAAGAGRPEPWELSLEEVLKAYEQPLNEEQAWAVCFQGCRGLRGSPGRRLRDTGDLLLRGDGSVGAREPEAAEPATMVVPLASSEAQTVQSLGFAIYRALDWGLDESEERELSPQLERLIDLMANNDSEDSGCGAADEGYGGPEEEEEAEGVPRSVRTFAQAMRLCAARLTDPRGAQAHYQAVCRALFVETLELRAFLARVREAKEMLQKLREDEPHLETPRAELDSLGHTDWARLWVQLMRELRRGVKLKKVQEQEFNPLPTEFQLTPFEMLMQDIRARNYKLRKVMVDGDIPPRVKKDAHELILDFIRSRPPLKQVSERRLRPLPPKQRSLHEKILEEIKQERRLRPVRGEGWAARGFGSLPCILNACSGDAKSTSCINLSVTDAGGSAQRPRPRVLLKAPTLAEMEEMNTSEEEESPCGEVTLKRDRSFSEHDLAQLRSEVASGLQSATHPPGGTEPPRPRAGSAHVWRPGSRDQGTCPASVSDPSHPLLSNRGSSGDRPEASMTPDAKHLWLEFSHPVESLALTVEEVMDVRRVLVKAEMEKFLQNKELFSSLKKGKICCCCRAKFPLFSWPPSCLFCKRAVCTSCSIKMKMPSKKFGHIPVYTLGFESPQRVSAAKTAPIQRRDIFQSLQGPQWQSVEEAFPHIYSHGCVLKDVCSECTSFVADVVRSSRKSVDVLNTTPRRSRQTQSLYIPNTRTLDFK
UniProt Q8WYA6: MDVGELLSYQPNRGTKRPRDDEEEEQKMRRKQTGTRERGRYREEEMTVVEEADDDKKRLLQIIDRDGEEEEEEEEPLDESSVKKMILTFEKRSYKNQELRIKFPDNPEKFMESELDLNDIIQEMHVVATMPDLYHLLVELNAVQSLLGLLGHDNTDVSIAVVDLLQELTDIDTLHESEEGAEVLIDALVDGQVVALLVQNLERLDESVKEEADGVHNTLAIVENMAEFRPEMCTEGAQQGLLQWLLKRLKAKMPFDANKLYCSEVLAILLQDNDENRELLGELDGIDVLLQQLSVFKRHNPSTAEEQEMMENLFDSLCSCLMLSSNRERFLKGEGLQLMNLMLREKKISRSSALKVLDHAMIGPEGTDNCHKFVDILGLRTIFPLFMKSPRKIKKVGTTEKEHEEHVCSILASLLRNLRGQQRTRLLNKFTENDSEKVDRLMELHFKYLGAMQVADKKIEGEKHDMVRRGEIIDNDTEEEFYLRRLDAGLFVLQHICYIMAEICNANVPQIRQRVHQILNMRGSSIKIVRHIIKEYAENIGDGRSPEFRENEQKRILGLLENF
UniProt Q8WTW4: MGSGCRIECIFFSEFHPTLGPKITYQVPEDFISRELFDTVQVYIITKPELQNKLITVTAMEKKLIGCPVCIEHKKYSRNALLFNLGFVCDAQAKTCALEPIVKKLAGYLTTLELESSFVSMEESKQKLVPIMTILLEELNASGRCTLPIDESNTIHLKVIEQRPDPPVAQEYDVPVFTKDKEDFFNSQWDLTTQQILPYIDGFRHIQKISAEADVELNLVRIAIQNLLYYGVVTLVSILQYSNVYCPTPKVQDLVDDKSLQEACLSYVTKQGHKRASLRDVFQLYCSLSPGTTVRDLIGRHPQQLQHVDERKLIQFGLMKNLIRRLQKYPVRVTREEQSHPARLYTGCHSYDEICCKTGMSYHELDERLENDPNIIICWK
UniProt Q8WUF5: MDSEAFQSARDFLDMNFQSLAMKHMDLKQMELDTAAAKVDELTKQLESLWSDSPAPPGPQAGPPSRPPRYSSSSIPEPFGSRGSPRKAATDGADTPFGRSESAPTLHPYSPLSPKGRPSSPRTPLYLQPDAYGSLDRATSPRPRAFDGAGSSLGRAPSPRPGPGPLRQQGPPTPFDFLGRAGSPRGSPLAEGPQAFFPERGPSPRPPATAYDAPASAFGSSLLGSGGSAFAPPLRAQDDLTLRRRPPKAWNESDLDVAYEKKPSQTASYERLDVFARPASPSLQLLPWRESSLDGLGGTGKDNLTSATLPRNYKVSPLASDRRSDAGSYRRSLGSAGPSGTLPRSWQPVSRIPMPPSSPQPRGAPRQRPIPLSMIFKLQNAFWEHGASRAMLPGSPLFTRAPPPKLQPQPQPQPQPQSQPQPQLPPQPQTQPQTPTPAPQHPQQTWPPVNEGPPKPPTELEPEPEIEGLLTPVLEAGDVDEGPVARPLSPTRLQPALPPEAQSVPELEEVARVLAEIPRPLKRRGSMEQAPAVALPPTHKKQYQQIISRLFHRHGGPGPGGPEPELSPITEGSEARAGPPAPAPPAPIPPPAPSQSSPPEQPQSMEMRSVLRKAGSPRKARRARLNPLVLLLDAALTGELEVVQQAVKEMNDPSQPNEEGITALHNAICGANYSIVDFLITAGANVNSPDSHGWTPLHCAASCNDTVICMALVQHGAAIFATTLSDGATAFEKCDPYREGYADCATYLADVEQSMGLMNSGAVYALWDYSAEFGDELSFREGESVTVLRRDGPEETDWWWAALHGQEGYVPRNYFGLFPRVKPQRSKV
UniProt Q8WW01: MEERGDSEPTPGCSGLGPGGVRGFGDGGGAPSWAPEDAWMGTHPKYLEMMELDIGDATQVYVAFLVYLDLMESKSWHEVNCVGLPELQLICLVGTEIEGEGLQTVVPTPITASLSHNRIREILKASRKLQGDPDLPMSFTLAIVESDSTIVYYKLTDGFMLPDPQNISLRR
UniProt Q8TF74: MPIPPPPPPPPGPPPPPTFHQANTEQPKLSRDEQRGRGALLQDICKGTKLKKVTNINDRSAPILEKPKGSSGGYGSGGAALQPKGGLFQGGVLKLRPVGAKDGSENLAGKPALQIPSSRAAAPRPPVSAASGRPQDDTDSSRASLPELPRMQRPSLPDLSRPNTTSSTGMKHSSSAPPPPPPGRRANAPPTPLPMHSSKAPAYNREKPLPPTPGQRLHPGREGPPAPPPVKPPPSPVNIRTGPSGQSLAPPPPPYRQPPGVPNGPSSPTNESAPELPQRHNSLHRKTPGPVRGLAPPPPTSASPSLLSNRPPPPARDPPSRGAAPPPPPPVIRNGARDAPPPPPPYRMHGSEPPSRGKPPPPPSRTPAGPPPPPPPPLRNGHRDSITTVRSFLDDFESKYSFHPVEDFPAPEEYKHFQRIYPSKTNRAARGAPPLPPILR
UniProt Q8TCD1: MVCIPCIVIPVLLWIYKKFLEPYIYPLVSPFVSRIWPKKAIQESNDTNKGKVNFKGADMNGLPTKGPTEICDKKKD
UniProt Q8TF50: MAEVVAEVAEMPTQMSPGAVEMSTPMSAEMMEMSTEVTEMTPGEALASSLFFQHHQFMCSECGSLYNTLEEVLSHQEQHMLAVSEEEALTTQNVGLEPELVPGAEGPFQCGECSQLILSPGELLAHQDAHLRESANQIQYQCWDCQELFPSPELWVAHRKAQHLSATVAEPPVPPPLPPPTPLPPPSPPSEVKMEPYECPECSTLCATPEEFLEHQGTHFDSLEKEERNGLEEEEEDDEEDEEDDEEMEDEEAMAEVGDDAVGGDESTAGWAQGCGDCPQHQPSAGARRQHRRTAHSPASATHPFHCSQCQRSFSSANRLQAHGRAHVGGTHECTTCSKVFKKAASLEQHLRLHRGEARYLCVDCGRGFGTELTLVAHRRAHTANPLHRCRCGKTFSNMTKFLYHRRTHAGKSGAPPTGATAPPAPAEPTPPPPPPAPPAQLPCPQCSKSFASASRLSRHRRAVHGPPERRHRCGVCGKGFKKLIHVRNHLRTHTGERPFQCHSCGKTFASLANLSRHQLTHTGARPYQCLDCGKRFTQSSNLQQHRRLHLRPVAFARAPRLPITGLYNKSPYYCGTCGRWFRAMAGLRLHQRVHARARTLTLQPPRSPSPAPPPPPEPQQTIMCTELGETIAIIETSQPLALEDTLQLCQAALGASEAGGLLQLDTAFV
UniProt Q8WXI9: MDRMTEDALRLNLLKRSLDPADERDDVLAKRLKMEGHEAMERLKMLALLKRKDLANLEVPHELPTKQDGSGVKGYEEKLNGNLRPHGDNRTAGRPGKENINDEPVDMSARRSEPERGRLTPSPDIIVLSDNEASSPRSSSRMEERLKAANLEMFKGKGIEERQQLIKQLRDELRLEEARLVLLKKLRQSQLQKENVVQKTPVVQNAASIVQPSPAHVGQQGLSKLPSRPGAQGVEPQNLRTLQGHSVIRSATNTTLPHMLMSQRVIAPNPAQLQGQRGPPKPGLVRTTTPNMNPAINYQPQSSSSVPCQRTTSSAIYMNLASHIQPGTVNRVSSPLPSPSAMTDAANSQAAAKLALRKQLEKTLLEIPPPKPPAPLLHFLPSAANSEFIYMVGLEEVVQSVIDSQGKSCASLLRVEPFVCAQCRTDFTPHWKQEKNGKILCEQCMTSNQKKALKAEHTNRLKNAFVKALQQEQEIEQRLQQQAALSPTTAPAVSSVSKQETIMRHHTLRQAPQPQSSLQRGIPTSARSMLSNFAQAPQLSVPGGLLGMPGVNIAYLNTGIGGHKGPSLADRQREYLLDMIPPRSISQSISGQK

What follows are targets tested with CN[C@@H]1C[C@H]2O[C@@](C)([C@@H]1OC)n1c3ccccc3c3c4c(c5c6ccccc6n2c5c31)C(=O)NC4 [staurosporine] (assay: log2 fold change of tryptic peptide abundance, ligand vs vehicle (limited proteolysis) (log2 ratio); higher = more trypsin-susceptible (destabilized)). Conditions: ligand concentration: 20 uM; sample: K562 cleared lysate; digestion: 4 min, 22 C (HT-PELSA RT4min, Orbitrap Astral).

How did the log2 fold change turn out when “DOCK2 (peptide sequence: IKEEMSKDQPDYAMYSR, peptide start residue: 198) (UniProt Q92608)” was run?
Its log2 fold change is 0.526.

How did the log2 fold change turn out when “UniProt Q8WVR3 (peptide sequence: VLVVEPVK, peptide start residue: 573)” was run?
The log2 fold change was 0.175.

“SMAP2 (peptide sequence: LEPVVFEK, peptide start residue: 153) (UniProt Q8WU79)” was tested. Which log2 fold change did it give?
The log2 fold change was -0.139.

For “GATAD1 (peptide sequence: KGAQGEILCHHCTGR, peptide start residue: 22) (UniProt Q8WUU5)”, which log2 fold change is on record?
Its log2 fold change is -0.16.

For “ALMS1 (peptide sequence: VSAVSGPADQK, peptide start residue: 695) (UniProt Q8TCU4)”, which log2 fold change is on record?
Its log2 fold change is -0.333.

With “PI4K2B (peptide sequence: VPFSEEIR, peptide start residue: 372) (UniProt Q8TCG2)” as the target, how does the log2 fold change read?
Its log2 fold change is -0.418.

Which log2 fold change does the source give for “UniProt Q8TCP9 (peptide sequence: TIPLSDNTISR, peptide start residue: 107)” here?
The log2 fold change was -0.117.

“H1FX (peptide sequence: AAKPSVPKVPK, peptide start residue: 200) (UniProt Q92522)” was tested. Which log2 fold change did it give?
The log2 fold change was 0.301.

How did the log2 fold change turn out when “RNF138 (peptide sequence: TTACQHVFCRK, peptide start residue: 31) (UniProt Q8WVD3)” was run?
Its log2 fold change is -0.19.

“DTX3L (peptide sequence: GGGMSSLAGK, peptide start residue: 509) (UniProt Q8TDB6)” was tested. Which log2 fold change did it give?
The log2 fold change was 0.384.

For “KAT2A (peptide sequence: TLPENLTLEDAKR, peptide start residue: 435) (UniProt Q92830)”, which log2 fold change is on record?
The log2 fold change was 0.28.

“BBX (peptide sequence: KFNSLPQYSPVTFDRK, peptide start residue: 696) (UniProt Q8WY36)” was tested. Which log2 fold change did it give?
Its log2 fold change is 0.479.

How did the log2 fold change turn out when “UniProt Q8WWV6 (peptide sequence: PAAPGTGSWAEGSVKAPAPIPESPPSK, peptide start residue: 244)” was run?
The log2 fold change was 0.128.

For “SPIRE2 (peptide sequence: AELDSLGHTDWAR, peptide start residue: 232) (UniProt Q8WWL2)”, which log2 fold change is on record?
The log2 fold change was 0.658.

For “CTNNBL1 (peptide sequence: HIIKEYAENIGDGR, peptide start residue: 531) (UniProt Q8WYA6)”, which log2 fold change is on record?
The log2 fold change was -0.176.

With “UniProt Q8WTW4 (peptide sequence: IECIFFSEFHPTLGPK, peptide start residue: 7)” as the target, how does the log2 fold change read?
Its log2 fold change is -0.388.

For “PPP1R13L (peptide sequence: MDSEAFQSAR, peptide start residue: 1) (UniProt Q8WUF5)”, which log2 fold change is on record?
Its log2 fold change is -0.342.

For “TSEN15 (peptide sequence: LTDGFMLPDPQNISLR, peptide start residue: 155) (UniProt Q8WW01)”, which log2 fold change is on record?
Its log2 fold change is 0.115.

For “RTF1 (peptide sequence: LTQIQESQVTSHNKER, peptide start residue: 252) (UniProt Q92541)”, which log2 fold change is on record?
Its log2 fold change is 0.284.

How did the log2 fold change turn out when “WIPF2 (peptide sequence: HSSSAPPPPPPGR, peptide start residue: 172) (UniProt Q8TF74)” was run?
The log2 fold change was 0.429.

“FBF1 (peptide sequence: QIGDQEGPRPAR, peptide start residue: 227) (UniProt Q8TES7)” was tested. Which log2 fold change did it give?
Its log2 fold change is -0.57.

For “C18orf32 (peptide sequence: GADMNGLPTKGPTEICDK, peptide start residue: 56) (UniProt Q8TCD1)”, which log2 fold change is on record?
The log2 fold change was 0.24.

Which log2 fold change does the source give for “LEO1 (peptide sequence: RDEEGNEIKESNAR, peptide start residue: 426) (UniProt Q8WVC0)” here?
Its log2 fold change is 0.743.

With “UniProt Q8TF01 (peptide sequence: EADGDVVNEK, peptide start residue: 473)” as the target, how does the log2 fold change read?
Its log2 fold change is -0.18.

How did the log2 fold change turn out when “UniProt Q8TF76 (peptide sequence: EHQEASVPK, peptide start residue: 312)” was run?
Its log2 fold change is 0.92.

With “TRUB1 (peptide sequence: GVLVVGIGSGTK, peptide start residue: 126) (UniProt Q8WWH5)” as the target, how does the log2 fold change read?
The log2 fold change was -0.188.

With “ZNF526 (peptide sequence: AHTANPLHR, peptide start residue: 381) (UniProt Q8TF50)” as the target, how does the log2 fold change read?
Its log2 fold change is -0.495.

With “GATAD2B (peptide sequence: KDLANLEVPHELPTK, peptide start residue: 52) (UniProt Q8WXI9)” as the target, how does the log2 fold change read?
The log2 fold change was 0.828.
